{
  "source": "patent US4051244A",
  "about": "“2,4-Diamino 5-bromo 6-chloro pyrimidines, process for their preparation and use as pharmaceuticals” (Mar-Pha Societe d'Etudes et d'Exploitation de Marques, priority 1975, dated 1977)",
  "key": {"[1]": {"system": "isolated duodenum, spasms induced by acetylcholine", "test": "Spasms of the isolated duodenum of a rat induced by acetylcholine (neurotropic)", "source_text": "(§1) The anti-spasmodic properties of the compounds according to the invention are shown by use of the technique of Magnus, R. (Ges. Physiol. 102, 123, 1904) in connection with the spasms of the isolated duodenum of a rat caused by either acetylcholine to research an effect of neurotropic type or by barium chloride to research an effect of musculotropic type.\n(§2) The results, shown hereunder, are expressed by a CE 50 which represents the concentration of product in mg/1 capable of decreasing by 50% the amplitude of spasms thus induced."}, "[2]": {"system": "isolated duodenum, spasms induced by barium chloride", "test": "Spasms of the isolated duodenum of a rat induced by barium chloride (musculotropic)", "source_text": "as §1, §2"}, "[3]": {"system": "vomitings induced by apomorphine", "test": "Anti-emetic test: vomitings induced by apomorphine in the dog, oral", "type": "in vivo", "settings": "mongrel dog", "source_text": "The anti-emetic properties of the compounds according to the invention are shown by oral way in the mongrel dog in tests in which vomitings are induced by apomorphine according to Chen, G. and Ensor, C. (J. Pharmacol exp. Ther. 98, 24, 1950).\nThe results are expressed by a DE 50 which represents the dose of product capable of diminishing by 50% the number of vomitings induced by the agent."}, "[4]": {"system": "isolated uterus, spasms induced by serotonine", "test": "Spasms of isolated uterus of rat induced by serotonine", "parameters": "species or system rat CD (Charles River)", "source_text": "The anti-serotonine properties of the compounds according to the invention are shown in vitro and in vivo.\nIn vitro, the action of the products on the spasms induced by the serotonine in the isolated uterus of a rat (rat CD Charles River) is shown, according to the technique of Fanchamps, A., Doepfner, W., Weidman, H. and Cerletti, (A. Schw. Med. Worsch. 90, 1040, 1960). The results, shown in the table hereunder, are expressed by a CE 50 which represents the concentration in mg/1 of the product capable of decreasing by 50% the amplitude of spasms induced by the serotonine."}},
  "note": "At least one structure is not confirmed: it was looked up by name or label, or the drawing left a doubt.",
  "data": [
    {"smiles": "CNc1nc(Cl)c(Br)c(N2CCN(C)CC2)n1", "note": "[Example 1, 2-methylamino-4-(N-methylpiperazinyl) 5-bromo 6-chloro pyrimidine]", "values": [
      {"measurement": "CE 50, concentration decreasing by 50% the amplitude of spasms induced by acetyl-choline", "setting": "[1]", "result": 6, "unit": "mg/L"},
      {"measurement": "CE 50, concentration decreasing by 50% the amplitude of spasms induced by barium chloride", "setting": "[2]", "result": 2.3, "unit": "mg/L"},
      {"measurement": "anti-emetic activity (in words)", "setting": "[3]", "result": "very important anti-emetic activity"},
      {"measurement": "anti-serotonine activity (in words)", "setting": "[4]; in vitro (rat uterus) and in vivo (guinea pig)", "result": "very high anti-serotonine activity"},
      {"measurement": "CE 50, spasms of isolated uterus of rat induced by serotonine", "setting": "[4]; in vitro, isolated uterus of rat", "result": 0.004, "unit": "mg/L"}
    ]}
  ]
}
